PubChem BioAssay AID686943, Drosophila RNAi Screening Center | 2013
In all, the deposit lists about 23,000 reagents; shown is a random part of those that have a named target and a result. 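Extra replicates exist only for a retested subset of genes; insulin dose and duration not given; both raised and lowered dpERK matter.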 A plus sign joins genes that one reagent is predicted to hit. Reagent sequences are not shown. The record does not give: the amount of reagent, the time to read-out.

Test: 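Fly genes whose loss alters ERK activation after insulin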 (primary screen)
System: Drosophila S2R+ haemocyte-like cells expressing YFP-tagged ERK (Rolled)
Knock-down reagent: long dsRNA against Drosophila genes
Treatment: insulin stimulation versus unstimulated cells; dose and duration not given
Measured: 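Per-plate z-scores of phospho-ERK immunostaining normalised to YFP-tagged ERK, measured with and without insulin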
Scale: replicate 1, z-score of dpERK with insulin and replicate 2, z-score of dpERK with insulin: higher = more active ERK per ERK-YFP after insulin; replicate 1, z-score of dpERK under basal conditions: higher = more basal active ERK per ERK-YFP; replicate 1, z-score of ERK-YFP with insulin: higher = more YFP-tagged ERK signal

| predicted target | DRSC id | replicate 1, z-score of dpERK with insulin | replicate 2, z-score of dpERK with insulin | replicate 1, z-score of dpERK under basal conditions | replicate 1, z-score of ERK-YFP with insulin |
| --- | --- | --- | --- | --- | --- |
| Cpr50Cb | DRSC06975 | 0.94 | 0.65 | -0.15 | 0.4 |
| mei-9 | DRSC18792 | -0.51 | -0.49 | -0.46 | 0.01 |
| Semp1 | DRSC01874 | -0.08 | -0.06 | 0.44 | -0.38 |
| CG8135 + BBIP1 | DRSC12739 | -0.75 | -0.87 | -2.44 | -0.88 |
| CG8135 + BBIP1 | DRSC16384 | 0.44 | 0.89 | -0.6 | 0.27 |
| Hao + Pex6 | DRSC06097 | -0.03 | 0.34 | -0.5 | -0.39 |
| Hao + Pex6 | DRSC06704 | -0.44 | -1.2 | -0.37 | 0.04 |
| cold | DRSC00538 | -0.9 | -0.39 | 0.94 | 0.67 |
| CG6184 | DRSC15986 | -0.9 | -0.21 | -0.05 | 0.02 |
| CG9641 | DRSC00721 | 0.11 | -0.16 | 0.14 | 0.55 |
| CG10365 | DRSC14234 | 0.27 | 0.06 | -0.41 | 0.47 |
| CG12229 | DRSC09868 | 0.13 | 0.21 | -0.83 | -0.55 |
| dbe | DRSC00811 | 0.43 | -0.04 | 0.48 | -0.31 |
| Hou | DRSC20001 | 0.25 | -0.74 | -0.33 | 0.05 |
| Hou | DRSC22347 | 0.33 | -0.29 | 0 | 0.22 |
| CG31793 | DRSC02605 | 0.73 | 0.64 | -0.23 | 0.26 |
| CG10062 | DRSC05960 | 0.43 | 0.19 | 0.97 | 0.11 |
| CG10062 | DRSC22535 | 0.8 | -4.65 | 1.21 | -0.23 |
| CG14538 (retired record) | DRSC02396 | 0.44 | 0.37 | 1.32 | -0.61 |
| lama | DRSC11361 | 0.02 | 0.77 | -0.27 | 0.13 |
| Non2 | DRSC08272 | -0.04 | 0.14 | 0.6 | 0.49 |
| Ack | DRSC08135 | -0.71 | -1.88 | -0.28 | 0.22 |
| janB | DRSC16973 | -0.51 | -0.07 | -0.37 | 0.27 |
| CG8613 | DRSC07222 | 0.29 | -0.58 | -0.03 | 0.16 |
| nod | DRSC18900 | 0.61 | 0.22 | 1.22 | 0.12 |
| nod | DRSC20356 | -0.04 | -0.53 | -1 | 0.29 |
| Edc3 | DRSC10620 | -0.01 | 0.16 | 0.62 | -0.22 |
| CG12402 | DRSC14508 | 0.38 | 0.42 | 0.49 | 0.08 |
| E(spl)mgamma-HLH | DRSC16699 | -0.02 | 0.22 | -0.42 | 0.96 |
| Pgant4 | DRSC00717 | 0.71 | 1.3 | 1.13 | 0.18 |
| Hmgs | DRSC06866 | -0.5 | 0.1 | -0.03 | -0.67 |
| CG9915 | DRSC20217 | -0.55 | -0.08 | -0.98 | 2.77 |
| CG9915 | DRSC21565 | 0.79 | -0.3 | 0.38 | -0.3 |
| Sdhaf3 | DRSC15020 | 1.67 | 0 | 0.66 | -0.73 |
| CG10804 | DRSC17764 | 0.02 | 0.39 | 1.08 | -0.79 |
| dgt6 | DRSC14424 | -1.18 | -0.38 | 1.35 | 0.21 |
| Cyp4ac3 | DRSC03304 | 0.31 | -0.35 | 0.24 | 0.48 |

Continued (6 carried over from the part before).
| predicted target | DRSC id | replicate 1, z-score of dpERK with insulin | replicate 2, z-score of dpERK with insulin | replicate 1, z-score of dpERK under basal conditions | replicate 1, z-score of ERK-YFP with insulin |
| --- | --- | --- | --- | --- | --- |
| CG9915 | DRSC20217 | -0.55 | -0.08 | -0.98 | 2.77 |
| CG9915 | DRSC21565 | 0.79 | -0.3 | 0.38 | -0.3 |
| Sdhaf3 | DRSC15020 | 1.67 | 0 | 0.66 | -0.73 |
| CG10804 | DRSC17764 | 0.02 | 0.39 | 1.08 | -0.79 |
| dgt6 | DRSC14424 | -1.18 | -0.38 | 1.35 | 0.21 |
| Cyp4ac3 | DRSC03304 | 0.31 | -0.35 | 0.24 | 0.48 |
| CG15253 | DRSC01871 | 0.96 | 0.16 | -0.39 | -0.16 |
| CG42789 | DRSC13793 | -0.21 | -0.46 | -1.84 | 0.87 |
| CG42703 | DRSC03973 | 0.58 | 1.47 | – | 1.61 |
| CG11379 | DRSC18629 | -0.44 | 0.37 | 0.48 | 0.76 |
| CG6592 | DRSC10669 | -0.13 | 0.25 | 0.07 | 0.3 |
| CG15747 | DRSC19713 | 1.24 | 0.2 | 0.97 | -0.62 |
| CG2991 | DRSC00559 | -0.42 | -0.29 | -0.01 | 1.4 |
| 5-HT2B | DRSC16360 | 0.85 | 0.33 | -0.71 | 0.19 |
| 5-HT2B | DRSC16362 | 1.25 | 0.06 | 0.94 | 0.05 |
| CG15212 | DRSC10212 | 0.34 | -0.06 | – | 0 |
| Dna2 | DRSC18254 | -0.57 | -0.43 | -0.01 | 0.93 |
| CG33096 | DRSC14440 | 0.07 | 0.6 | 0.36 | -0.08 |
| stw | DRSC04842 | -0.07 | -0.11 | 0.02 | 0.4 |
| stw | DRSC04843 | 1.23 | 0.33 | 0.53 | 0.1 |
| stw | DRSC22527 | 0.29 | 0.38 | 0.07 | -0.74 |
| fru | DRSC16951 | -1.18 | -2.54 | -1.31 | -1.58 |
| fru | DRSC16952 | -6.49 | 0.62 | -0.37 | -0.37 |
| fru | DRSC16953 | 1.08 | -1.03 | -0.25 | -0.45 |
| fru | DRSC21600 | -6.05 | -3.17 | -0.8 | -0.03 |
| CG32189 | DRSC09511 | -0.24 | 0.94 | 0.06 | 2.55 |
